Measurements published in patent publication US20140142035A1, “METHODS AND COMPOSITIONS FOR MODULATING INSULIN REGULATION” (The Washington University, priority 2010, published 2014).

Key:
WT mice = experiment: Plasma insulin 5 minutes after i.p. glucose with peptides, wild type mice; format: in vivo, mouse; conditions: atropine i.p. 15 minutes before
Procedure: (§1) WT and DT mice were fasted for 16-h (Fast). As indicated, some mice were then administered an intraperitoneal injection of glucose (1 g/kg) with vehicle alone (BSA), GIP alone, Xenin-25 alone (Xen) or GIP plus Xenin-25 (G+X). […] Five minutes after injection of glucose, blood was collected and plasma prepared for insulin assays.
(§2) WT and DT mice were fasted for 16-h (Fast). As indicated, some mice were then administered an intraperitoneal injection of glucose (1 g/kg) with vehicle alone (BSA), GIP alone, Xenin-25 alone (Xen) or GIP plus Xenin-25 (G+X). Five minutes later, blood was collected. Plasma was then prepared and assayed for insulin.
(§3) Activation of parasympathetic neurons that innervate the pancreas can increase glucose-mediated insulin release in vivo. […] Wild type and GIP/DT mice were fasted overnight and then administered glucose in combination with GIP plus Xenin-25 by intraperitoneal injection. […] Blood was collected and plasma prepared 5 minutes after the glucose injection. […] Subsets of parasympathetic neurons that innervate the islets release vasoactive intestinal polypeptide (VIP) and pituitary adenylate cyclase activating peptide (PACAP) when activated. N-terminally truncated forms of PACAP [PACAP(6-38) or PACAP(6-27)] are competitive inhibitors of both VIP receptors (VPAC1 and VPAC2) as well as the PACAP-specific receptor Pac.

GIP/DT mice = experiment: Plasma insulin 5 minutes after i.p. glucose with peptides, GIP/DT mice; format: in vivo, mouse
Procedure: as §1, §2, §3

CN1[C@@H]2CC[C@H]1C[C@@H](OC(=O)C(CO)c1ccccc1)C2 (stereo partly drawn) [atropine]
effect on plasma insulin levels with GIP in the absence of Xenin-25 (WT mice): no effect on plasma insulin levels in either wild type or GIP/DT mice | inhibition of the increase in plasma insulin level (GIP/DT mice; GIP/DT mice given glucose with GIP plus Xenin-25, atropine 500 micrograms/kg i.p. 15 minutes before, P=0.04): 1.8 fold | effect on plasma insulin levels with GIP in the absence of Xenin-25 (GIP/DT mice; GIP/DT mice, atropine i.p. 15 minutes before): no effect on plasma insulin levels in either wild type or GIP/DT mice
